No constants are given. Whether binding was seen depends on the method and setting. Binding seen in cells or lysates may run through a third protein. Some binding calls cover weakened binding; strength is not graded here. Sequences can lack the tags named with a protein.
Experiments:
HSP-4::GFP (C. elegans) = HSP-4::GFP (C. elegans) (UniProt P20163); assay: co-IP
[1] = target: P97(CDC48.1)::GFP::HA::6×His (C. elegans) (UniProt P54811); assay: co-IP

The chains behind the UniProt entries cited, without tags or fusion partners. Residues count along the entry.
UniProt P20163, residues 18-657: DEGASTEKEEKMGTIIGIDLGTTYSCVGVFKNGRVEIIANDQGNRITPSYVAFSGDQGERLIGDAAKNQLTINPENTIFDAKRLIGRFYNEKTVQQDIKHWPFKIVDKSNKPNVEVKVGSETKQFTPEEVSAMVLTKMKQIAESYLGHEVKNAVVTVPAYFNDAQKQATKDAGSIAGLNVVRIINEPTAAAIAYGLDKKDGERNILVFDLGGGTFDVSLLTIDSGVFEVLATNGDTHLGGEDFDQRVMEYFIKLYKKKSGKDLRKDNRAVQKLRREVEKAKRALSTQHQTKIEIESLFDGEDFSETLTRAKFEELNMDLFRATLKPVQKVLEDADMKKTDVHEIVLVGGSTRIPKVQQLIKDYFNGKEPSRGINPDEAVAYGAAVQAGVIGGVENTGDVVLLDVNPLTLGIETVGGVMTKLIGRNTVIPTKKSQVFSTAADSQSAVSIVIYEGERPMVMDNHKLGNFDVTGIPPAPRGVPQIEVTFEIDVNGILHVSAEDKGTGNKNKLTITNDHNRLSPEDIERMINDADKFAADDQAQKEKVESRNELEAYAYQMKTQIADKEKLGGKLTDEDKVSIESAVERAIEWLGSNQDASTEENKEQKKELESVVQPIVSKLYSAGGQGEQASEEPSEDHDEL
UniProt P54811: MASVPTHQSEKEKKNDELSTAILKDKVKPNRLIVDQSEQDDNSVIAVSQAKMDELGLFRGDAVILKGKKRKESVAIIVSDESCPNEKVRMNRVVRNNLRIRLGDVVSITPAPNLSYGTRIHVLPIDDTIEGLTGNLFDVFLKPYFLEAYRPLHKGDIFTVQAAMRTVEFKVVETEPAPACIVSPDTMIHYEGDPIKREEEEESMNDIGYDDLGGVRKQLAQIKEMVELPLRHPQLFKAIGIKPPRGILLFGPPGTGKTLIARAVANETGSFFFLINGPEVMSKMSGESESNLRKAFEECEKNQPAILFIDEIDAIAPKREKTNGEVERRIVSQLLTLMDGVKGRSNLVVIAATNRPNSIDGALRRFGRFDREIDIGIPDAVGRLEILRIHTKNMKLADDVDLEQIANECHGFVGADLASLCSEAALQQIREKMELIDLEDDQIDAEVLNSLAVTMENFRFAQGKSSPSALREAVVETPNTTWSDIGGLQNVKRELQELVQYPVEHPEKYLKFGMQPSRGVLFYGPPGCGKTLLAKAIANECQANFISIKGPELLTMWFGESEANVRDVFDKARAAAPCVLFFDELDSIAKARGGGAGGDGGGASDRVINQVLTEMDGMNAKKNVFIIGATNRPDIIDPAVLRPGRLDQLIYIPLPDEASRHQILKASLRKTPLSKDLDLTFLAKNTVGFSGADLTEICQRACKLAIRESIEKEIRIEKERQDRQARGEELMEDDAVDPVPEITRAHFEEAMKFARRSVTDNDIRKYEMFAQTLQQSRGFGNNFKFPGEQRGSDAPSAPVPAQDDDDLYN

| Binder | binding (HSP-4::GFP (C. elegans)) | binding [1] |
| --- | --- | --- |
| TRA-2::Flag::HA (protein, UniProt P34709 32-1475) IDYQEKSIFPSFVSQGFFETRTNNEEYIIEKIAQTQENGVDMRSTLHFTQHGYLLNNISNLKIKFRQKTYTLNDVCFKPHITIFQQSSSSDQNEYPHYIQRLLLEMQRLSPCLIVTPLNCFYDIYRIHGEISNWNKNTDFLNRRLRNSYIEAIGENDERPYVKSNYGPSLIKSWADHMFDLPSKSFTNSTKDALFQKIKLWLLSIEPRQKTCAASIHSCDTPLDSEHYFNICTDMQSVDNFAEKKTKFKLEDVDEEFAMNLDCVDDQEQFIEWMQELEIRKMYSHVTEKPDYPNVVNQTCDKIFHDLNSTGIEFFDGSRSFSSTKSQFDTMQTEIVLLTPEMLLSAMQHSDFVNGFESIWTIEKAEELIHEFRLALKEETEKFKENRMSKMIRVTSRVLDNTVTTKLQSFSEKQTIHFVVNVHSLIVILFTIFVWSGAPLRSAFMFFVRDALTCLLFCFVCSTDGVIVLDTELIKYIIVLTLANLYFTTRSSFCTERLSRCIQREKRFPINSNFASLITVDTMTDSRQIQYFLSTVTKYQAAQDSYSNELFERFPKNWGCTSILIFPIVFVYWYFIDSNFDKICVSVLPSFCLAAGEELFAKNMFWKEREAMQAKQRLENEEQAESITGSSLEKLFAGNKPVSNTDKANIVKKSSIIRNQKPCLQDLSPGTYDVSNFMKYPHQASRIFREKIIGLYLRILKLRTLGVILCIPAILLIVISIGLLFIPVKRETLHTDSKQDDIFIEFEIFNFSTNWKIVNQNLKQFSEDIESIGTLYTISNWQKSFERFEQETNKNASAEWNILFKWINDEPINSAVTLFSEKSSGNQTIANPFKFRLRYGFDAKNETTVIEIVQKIDELLSKCSKNLSPKAVGVLYEHYHRIAVVWNLFAFNQLTTAGIFIILLSIITFIFAITPTIKATFLFSLLVVGTQIEVAALVHLFSLDHHQIYTNLALFAGFLAAWDPFCALLRYRRRILYKSETRRTPELASKRRVLLPIVATADIAQFFVLLITAFSILAIICSIVPELNIFFVPTVILIVIQIVAVFNSIIVSIATKQMFESEVRHYLHRDLRGSTTAVRVYNLVQKQRLASSLDEPQVELDEFSIKRSSPPCRYYAPPPKYSCKKRSRSSDEDEDSDPNQPGPSNRRSPKTGNKRVRGNGDNTELYIPNRYELIVSGKSVGGNTSAAWNGPGSTLEQNMNALEECFELGVDEYDFDEHDGDEGCELVQDMLDRERNLMNKRSTAQRRESRNIEKMKKSQENLDKEKSEEKISESKKNQDDSIESPNLPGTPANLPVDEPLPPVGRLYIVEHVLPEEYRRDPLTEPPSMEDCIRAHSDPNLPPHPRADQYPASFTRPMVEYCEDIYWTHRTGQLPPGLQVPRRPYDYYHITERTPPPEDLNWVPPAESPPIPIPQQAFDLLEERRRNHREQQDEAREGDLSDPEV | binds | binds |
| 3×Flag::FEM-3 (protein, UniProt P34691 1-388) MEVDPGSDDVEADRETRAQKLKLKRNVKFRAQMRRFDEYCGVTNLTVDDLNWPLISGIPLQRQRLTGATYYDDSLLDQNPWDEFSIDRFLEITSIQLITAGAGYERNDEITRFVFQRTMKTIVTYCNFMYDLARRNGKVQITRFELQDLIHRDEFRFYMYFRQFLPNPDPNCTAFSNHYTSLLHTLYFNIPGMPQFWNNSQMYNYAATRGQRLVQNIAAFYPPEYFWNEDESKYHTTFVVPRGTEFSKFYARRFHEALGMPPLENEIITVLDWLAKLCILEIVYHTTIWCDITGFGGLPRIEHYRLAMENVEDIIFDLAIDDFSISRLQLQISPFEISRYSPLDVSGYYETIKRKKDIEEYQNRFYEVHYSDDVRIMNVYATDCSRKR | no binding | – |

From paper doi:10.1101/2024.06.17.599447
